# Test results: patent US20140194361A1, “Vault Agents for Treating Chronic Kidney Disease” (priority 2010, published 2014)
# Test system: type 2 diabetic db/db mice
# Test: prevention of progression of early DN in type 2 diabetic db/db mice
# Type: in vivo
# Settings: 2400 μg/kg, diabetic or non-diabetic animals
# From the text: There was no change in blood pressure or plasma glucose in either the diabetic or non-diabetic animals.
# There was no change in creatinine clearance in the cyclic-GRGESP-control peptide treated diabetic animals
# In addition, glomerular volume measured by fractional volume of expansion by electron microscopy was normalized, p<0.05 after 12 weeks of treatment.
# We investigated the ability of cyclic GRGDSP vs. GRGESP in a pilot study to prevent accumulation of glomerular lesions in early DN in 20 week old diabetic type 2 db/db vs non-diabetic db/m and diabetic type 1 Ins2Akita+ vs. non-diabetic Ins2+/+ mice with GRGESP and […] and observed up to 52% reduction in albuminuria in the type 2 diabetic mice (FIGS. 1-2) and ˜70% reduction in albuminuria in the type 1 diabetic mice (FIG. 6).
substance,measurement,value
GRGDSP [cyclic-GRGDSP],blood pressure,no change
same,plasma glucose,no change
